Reference: PubChem BioAssay AID1159578 (Peter MacCallum Cancer Centre, 2015)
Purpose: 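Genome-wide hunt for genes controlling movement of lymphatic endothelial cells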 (primary screen). Cell system: human lymphatic endothelial cells. Reagents: siRNA pool against human genes, 40 nM. Time to read-out: 48 h after transfection. Measured: 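Cells stained with dye and imaged after a scratch; covered wound area and nuclei counted, duplicates averaged, migration set against mock wells and turned into a robust z-score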. Direction: migration robust z-score: higher = faster migration into the scratch; migration relative to mock: higher = more scratch area covered than mock; nuclei per well: higher = more cells in the well. Hit rule: 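Migration changed when robust z exceeds 2 or falls below -2 and mean nuclei number is at least 3300; otherwise not called changed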. Calls: active = migration changed; inactive = no migration change, or too few cells.
The whole screen tested about 18,000 reagents; shown is a part drawn at random. About 1,030 of all reagents (5.7%) were called active. 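Inactive calls also include pools with fewer than 3300 nuclei, whose migration was not assessed.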 Raw values are not corrected between plates. Reagent sequences are not shown.

gene	migration robust z-score	migration class with cell-count check	migration relative to mock	nuclei per well, duplicate mean	outcome
PTBP2 (polypyrimidine tract binding protein 2)	0.55	migration z between -2 and 2; enough cells	0.91	5760	inactive
ARL6 (ARF like GTPase 6)	-1.32	migration z between -2 and 2; enough cells	0.54	5889	inactive
C14orf180 (chromosome 14 open reading frame 180)	0.22	migration z between -2 and 2; enough cells	0.94	5958	inactive
TAL2 (TAL bHLH transcription factor 2)	-0.8	migration z between -2 and 2; enough cells	0.68	5764	inactive
LSM7	0.46	migration z between -2 and 2; enough cells	1	6708	inactive
DOCK9 (dedicator of cytokinesis 9)	0.16	migration z between -2 and 2; enough cells	0.92	6040	inactive
HOXC6 (homeobox C6)	0.28	migration z between -2 and 2; enough cells	0.86	6056	inactive
KCNF1	-1.5	migration z between -2 and 2; enough cells	0.52	4357	inactive
PLAGL2 (PLAG1 like zinc finger 2)	-0.52	migration z between -2 and 2; enough cells	0.71	5810	inactive
AKIRIN1 (akirin 1)	1.02	migration z between -2 and 2; enough cells	1.15	4968	inactive
CRYAA (crystallin alpha A)	-0.2	migration z between -2 and 2; enough cells	0.84	4504	inactive
LHFPL6 (LHFPL tetraspan subfamily member 6)	0.26	migration z between -2 and 2; enough cells	0.96	5202	inactive
ADD3 (adducin 3)	-0.72	migration z between -2 and 2; enough cells	0.7	5898	inactive
CFTR (CF transmembrane conductance regulator)	1.32	migration z between -2 and 2; enough cells	1.06	5556	inactive
MYL5 (myosin light chain 5)	-1.25	migration z between -2 and 2; enough cells	0.55	6140	inactive
HAUS8 (HAUS augmin like complex subunit 8)	1.86	migration z between -2 and 2; enough cells	1.36	5908	inactive
OR5P2 (olfactory receptor family 5 subfamily P member 2)	0.52	migration z between -2 and 2; enough cells	1.02	4890	inactive
PRAMEF16 (retired record)	2.31	migration z above 2; enough cells	1.48	5094	active
ZIC2 (Zic family zinc finger 2)	0.24	migration z between -2 and 2; enough cells	0.85	6362	inactive
NSMCE3 (NSE3 component of SMC5/6 complex)	-1.44	migration z between -2 and 2; enough cells	0.52	5286	inactive
TOP2B (DNA topoisomerase II beta)	1.06	migration z between -2 and 2; enough cells	1.01	6361	inactive
ANXA8 (annexin A8)	2.62	migration z above 2; enough cells	1.56	6126	active
RCOR2 (REST corepressor 2)	0.5	migration z between -2 and 2; enough cells	1.02	5824	inactive
PLEKHA8 (pleckstrin homology domain containing A8)	-0.88	migration z between -2 and 2; enough cells	0.66	5684	inactive

An excerpt from above, reduced to “nuclei per well, duplicate mean”:
TOP2B (DNA topoisomerase II beta)	6361
ANXA8 (annexin A8)	6126
RCOR2 (REST corepressor 2)	5824
PLEKHA8 (pleckstrin homology domain containing A8)	5684

The list goes on.
gene	migration robust z-score	migration class with cell-count check	migration relative to mock	nuclei per well, duplicate mean	outcome
EYA1 (EYA transcriptional coactivator and phosphatase 1)	0.46	migration z between -2 and 2; enough cells	0.9	5576	inactive
ADCY1 (adenylate cyclase 1)	1.33	migration z between -2 and 2; enough cells	1.06	5856	inactive
RWDD2B (RWD domain containing 2B)	-1.7	migration z between -2 and 2; enough cells	0.44	6408	inactive
ARL14EP (ARF like GTPase 14 effector protein)	-0.28	migration z between -2 and 2; enough cells	0.82	6034	inactive
CD164 (CD164 molecule)	-0.84	migration z between -2 and 2; enough cells	0.67	4680	inactive
PHKB (phosphorylase kinase regulatory subunit beta)	0.03	migration z between -2 and 2; enough cells	0.81	4914	inactive
EME1 (essential meiotic structure-specific endonuclease 1)	-1.71	under 3300 nuclei; migration not judged	0.48	3040	inactive
GLT8D2 (glycosyltransferase 8 domain containing 2)	0.03	migration z between -2 and 2; enough cells	0.9	6774	inactive
ZNF623 (zinc finger protein 623)	0.08	migration z between -2 and 2; enough cells	0.9	6442	inactive
TPM2 (tropomyosin 2)	-0.15	migration z between -2 and 2; enough cells	0.85	3938	inactive
PTPRR (protein tyrosine phosphatase receptor type R)	-0.03	migration z between -2 and 2; enough cells	0.8	4556	inactive
NOS3 (nitric oxide synthase 3)	-1.38	migration z between -2 and 2; enough cells	0.54	6579	inactive
TUBA1C (tubulin alpha 1c)	-1.91	under 3300 nuclei; migration not judged	0.38	2701	inactive
RAB28 (RAB28, member RAS oncogene family)	1.53	migration z between -2 and 2; enough cells	1.1	6066	inactive
SMU1 (SMU1 DNA replication regulator and spliceosomal factor)	0.32	migration z between -2 and 2; enough cells	0.97	5201	inactive
